Test [1] has as its target T1, Endogenous NPAC (human cells) (human) (UniProt Q49A26).
T1 sequence: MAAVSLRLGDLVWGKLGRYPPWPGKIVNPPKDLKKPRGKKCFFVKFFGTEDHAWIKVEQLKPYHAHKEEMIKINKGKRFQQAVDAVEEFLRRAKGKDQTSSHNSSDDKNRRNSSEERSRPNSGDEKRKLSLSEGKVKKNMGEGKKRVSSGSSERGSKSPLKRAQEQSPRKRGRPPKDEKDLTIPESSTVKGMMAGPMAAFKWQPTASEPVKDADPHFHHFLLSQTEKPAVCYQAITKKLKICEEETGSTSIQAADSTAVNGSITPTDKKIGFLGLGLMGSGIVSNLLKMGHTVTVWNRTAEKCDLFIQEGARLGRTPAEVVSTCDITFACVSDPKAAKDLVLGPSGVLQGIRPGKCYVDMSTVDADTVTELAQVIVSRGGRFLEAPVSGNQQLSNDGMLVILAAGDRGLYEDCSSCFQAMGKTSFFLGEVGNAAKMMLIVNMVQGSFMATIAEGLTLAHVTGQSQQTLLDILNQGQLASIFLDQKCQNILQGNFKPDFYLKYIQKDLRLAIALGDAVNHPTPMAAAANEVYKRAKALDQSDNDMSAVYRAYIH
As to the kind of experiment: tandem affinity purification from HeLa, immunoblot with anti-NPAC. Background: In western blotting, separated proteins are transferred to a membrane and probed.

Test [2] concerns the target T1, Endogenous NPAC (human cells) (human). As to the kind of experiment: tandem affinity purification, immunoblot with anti-NPAC.
Test [3] addresses T2, Recombinant His-NPAC (His6 tagged full-length NPAC) purified from E. coli (human) (UniProt Q49A26).
T2 sequence: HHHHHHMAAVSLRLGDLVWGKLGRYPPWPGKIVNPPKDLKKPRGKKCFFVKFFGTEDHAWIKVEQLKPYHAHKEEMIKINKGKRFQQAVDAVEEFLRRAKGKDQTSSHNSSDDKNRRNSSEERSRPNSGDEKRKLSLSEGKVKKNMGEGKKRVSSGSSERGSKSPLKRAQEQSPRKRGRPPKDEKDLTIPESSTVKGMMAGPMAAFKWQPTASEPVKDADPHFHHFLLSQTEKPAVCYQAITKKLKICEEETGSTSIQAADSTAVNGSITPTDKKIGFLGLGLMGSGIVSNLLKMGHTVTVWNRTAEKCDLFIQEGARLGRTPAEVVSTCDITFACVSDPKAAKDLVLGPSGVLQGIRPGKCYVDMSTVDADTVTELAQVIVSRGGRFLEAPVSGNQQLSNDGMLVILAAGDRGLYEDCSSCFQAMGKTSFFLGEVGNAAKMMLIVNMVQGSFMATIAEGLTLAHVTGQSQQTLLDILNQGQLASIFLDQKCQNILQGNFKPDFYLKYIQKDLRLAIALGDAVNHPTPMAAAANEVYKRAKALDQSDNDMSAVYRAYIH
As to the kind of experiment: GST pulldown of recombinant His-NPAC, SDS-PAGE, Coomassie.

Test [4] concerns the target T3, Recombinant 6x his tagged full-length LSD2 (human) (UniProt Q8NB78).
T3 sequence: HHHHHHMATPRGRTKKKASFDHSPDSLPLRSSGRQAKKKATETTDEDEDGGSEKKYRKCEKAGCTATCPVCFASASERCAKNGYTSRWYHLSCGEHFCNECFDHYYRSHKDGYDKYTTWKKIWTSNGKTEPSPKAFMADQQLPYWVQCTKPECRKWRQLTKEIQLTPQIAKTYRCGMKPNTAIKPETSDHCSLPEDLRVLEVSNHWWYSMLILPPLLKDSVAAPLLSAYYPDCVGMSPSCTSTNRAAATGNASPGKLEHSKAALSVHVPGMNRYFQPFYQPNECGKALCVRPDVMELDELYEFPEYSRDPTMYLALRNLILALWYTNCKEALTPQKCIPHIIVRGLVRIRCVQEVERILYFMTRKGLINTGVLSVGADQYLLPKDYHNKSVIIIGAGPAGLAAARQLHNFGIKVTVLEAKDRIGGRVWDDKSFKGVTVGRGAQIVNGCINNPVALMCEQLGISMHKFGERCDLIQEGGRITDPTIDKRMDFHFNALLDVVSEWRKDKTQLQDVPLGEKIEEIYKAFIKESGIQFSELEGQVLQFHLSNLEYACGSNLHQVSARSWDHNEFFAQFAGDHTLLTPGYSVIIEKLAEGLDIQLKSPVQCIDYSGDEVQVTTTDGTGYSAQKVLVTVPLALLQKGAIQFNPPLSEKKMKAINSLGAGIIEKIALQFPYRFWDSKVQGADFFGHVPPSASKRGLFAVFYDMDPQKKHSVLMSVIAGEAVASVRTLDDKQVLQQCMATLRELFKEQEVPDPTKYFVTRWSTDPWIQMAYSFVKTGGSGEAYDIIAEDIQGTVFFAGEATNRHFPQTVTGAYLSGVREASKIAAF
Kind of test: GST pulldown of His-LSD2, SDS-PAGE, Coomassie.

The target in test [5] is T3, Recombinant 6x his tagged full-length LSD2 (human). As to the kind of experiment: GST pulldown of purified His-LSD2, SDS-PAGE, coomassie (FIG. 2D).
Test [6] has the same target. Kind of test: GST pulldown of purified His-LSD2, SDS-PAGE, Coomassie.
The target is the same in test [7]. As to the kind of experiment: GST pulldown of purified full-length His-LSD2, SDS-PAGE, coomassie.
Test [8] deals with T4, GST-LSD2 recombinant protein (human) (UniProt Q8NB78).
T4 sequence (looked up): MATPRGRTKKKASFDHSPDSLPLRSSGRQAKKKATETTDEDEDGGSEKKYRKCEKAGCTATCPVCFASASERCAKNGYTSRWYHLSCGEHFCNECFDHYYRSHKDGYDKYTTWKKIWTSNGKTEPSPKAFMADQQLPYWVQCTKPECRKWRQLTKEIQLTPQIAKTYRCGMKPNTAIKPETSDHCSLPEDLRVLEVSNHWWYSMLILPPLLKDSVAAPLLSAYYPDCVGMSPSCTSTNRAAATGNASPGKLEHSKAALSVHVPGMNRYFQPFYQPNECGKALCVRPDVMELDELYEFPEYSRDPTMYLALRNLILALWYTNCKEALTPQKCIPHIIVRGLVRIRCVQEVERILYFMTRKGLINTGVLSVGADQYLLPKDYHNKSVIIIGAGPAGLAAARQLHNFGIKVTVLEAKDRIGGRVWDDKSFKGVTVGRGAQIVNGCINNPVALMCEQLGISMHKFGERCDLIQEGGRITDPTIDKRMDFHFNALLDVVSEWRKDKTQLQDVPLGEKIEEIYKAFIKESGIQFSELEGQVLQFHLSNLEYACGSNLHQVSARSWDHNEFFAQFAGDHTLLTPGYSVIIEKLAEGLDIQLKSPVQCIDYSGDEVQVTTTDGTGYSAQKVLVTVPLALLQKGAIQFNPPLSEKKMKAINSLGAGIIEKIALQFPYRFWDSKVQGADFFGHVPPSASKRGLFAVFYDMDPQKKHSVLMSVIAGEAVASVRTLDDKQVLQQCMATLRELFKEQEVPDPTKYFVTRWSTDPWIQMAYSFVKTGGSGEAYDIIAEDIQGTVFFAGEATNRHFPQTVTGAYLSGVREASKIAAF
As to the kind of experiment: GST pulldown with GST-LSD2, SDS-PAGE, coomassie (FIG. 13D).

Binding data for 4 molecules are collected here from US20150329644A1.

Results are given in words; binding and its absence hold for the method and conditions named. For some assays here: Binding seen in cells or lysates may run through a third protein. Some results given as binding are weak or reduced against the parent protein; the word gives no strength. Where a sequence is shown, tags or fusion partners need not be part of it.

B1: FLAG-HA tagged LSD2 bait protein (stably expressed in HeLa, tandem affinity purified) (enzyme, human, UniProt Q8NB78 1-822, looked up, not shown: small tags and cut ends)
chain: MATPRGRTKKKASFDHSPDSLPLRSSGRQAKKKATETTDEDEDGGSEKKYRKCEKAGCTATCPVCFASASERCAKNGYTSRWYHLSCGEHFCNECFDHYYRSHKDGYDKYTTWKKIWTSNGKTEPSPKAFMADQQLPYWVQCTKPECRKWRQLTKEIQLTPQIAKTYRCGMKPNTAIKPETSDHCSLPEDLRVLEVSNHWWYSMLILPPLLKDSVAAPLLSAYYPDCVGMSPSCTSTNRAAATGNASPGKLEHSKAALSVHVPGMNRYFQPFYQPNECGKALCVRPDVMELDELYEFPEYSRDPTMYLALRNLILALWYTNCKEALTPQKCIPHIIVRGLVRIRCVQEVERILYFMTRKGLINTGVLSVGADQYLLPKDYHNKSVIIIGAGPAGLAAARQLHNFGIKVTVLEAKDRIGGRVWDDKSFKGVTVGRGAQIVNGCINNPVALMCEQLGISMHKFGERCDLIQEGGRITDPTIDKRMDFHFNALLDVVSEWRKDKTQLQDVPLGEKIEEIYKAFIKESGIQFSELEGQVLQFHLSNLEYACGSNLHQVSARSWDHNEFFAQFAGDHTLLTPGYSVIIEKLAEGLDIQLKSPVQCIDYSGDEVQVTTTDGTGYSAQKVLVTVPLALLQKGAIQFNPPLSEKKMKAINSLGAGIIEKIALQFPYRFWDSKVQGADFFGHVPPSASKRGLFAVFYDMDPQKKHSVLMSVIAGEAVASVRTLDDKQVLQQCMATLRELFKEQEVPDPTKYFVTRWSTDPWIQMAYSFVKTGGSGEAYDIIAEDIQGTVFFAGEATNRHFPQTVTGAYLSGVREASKIAAF
B1: the binding entry in test [1] and in test [2] was “binds” throughout.

B2: GST-LSD2 recombinant protein (enzyme, human, UniProt Q8NB78 1-822, looked up, not shown: a dimerising Fc or GST)
chain: MATPRGRTKKKASFDHSPDSLPLRSSGRQAKKKATETTDEDEDGGSEKKYRKCEKAGCTATCPVCFASASERCAKNGYTSRWYHLSCGEHFCNECFDHYYRSHKDGYDKYTTWKKIWTSNGKTEPSPKAFMADQQLPYWVQCTKPECRKWRQLTKEIQLTPQIAKTYRCGMKPNTAIKPETSDHCSLPEDLRVLEVSNHWWYSMLILPPLLKDSVAAPLLSAYYPDCVGMSPSCTSTNRAAATGNASPGKLEHSKAALSVHVPGMNRYFQPFYQPNECGKALCVRPDVMELDELYEFPEYSRDPTMYLALRNLILALWYTNCKEALTPQKCIPHIIVRGLVRIRCVQEVERILYFMTRKGLINTGVLSVGADQYLLPKDYHNKSVIIIGAGPAGLAAARQLHNFGIKVTVLEAKDRIGGRVWDDKSFKGVTVGRGAQIVNGCINNPVALMCEQLGISMHKFGERCDLIQEGGRITDPTIDKRMDFHFNALLDVVSEWRKDKTQLQDVPLGEKIEEIYKAFIKESGIQFSELEGQVLQFHLSNLEYACGSNLHQVSARSWDHNEFFAQFAGDHTLLTPGYSVIIEKLAEGLDIQLKSPVQCIDYSGDEVQVTTTDGTGYSAQKVLVTVPLALLQKGAIQFNPPLSEKKMKAINSLGAGIIEKIALQFPYRFWDSKVQGADFFGHVPPSASKRGLFAVFYDMDPQKKHSVLMSVIAGEAVASVRTLDDKQVLQQCMATLRELFKEQEVPDPTKYFVTRWSTDPWIQMAYSFVKTGGSGEAYDIIAEDIQGTVFFAGEATNRHFPQTVTGAYLSGVREASKIAAF
Take B2: in test [3], the binding result is given as “binds”.

B3: GST-NP.d3 (NPAC residues 152-252, linker region) (protein, not shown: a dimerising Fc or GST)
chain: SERGSKSPLKRAQEQSPRKRGRPPKDEKDLTIPESSTVKGMMAGPMAAFKWQPTASEPVKDADPHFHHFLLSQTEKPAVCYQAITKKLKICEEETGSTSIQ
As for B3, the binding entry in test [4], in test [5], in test [6] and in test [7] was “binds” in each case.

B4: Recombinant His-NPAC (His6 tagged full-length NPAC) purified from E. coli (protein)
chain: HHHHHHMAAVSLRLGDLVWGKLGRYPPWPGKIVNPPKDLKKPRGKKCFFVKFFGTEDHAWIKVEQLKPYHAHKEEMIKINKGKRFQQAVDAVEEFLRRAKGKDQTSSHNSSDDKNRRNSSEERSRPNSGDEKRKLSLSEGKVKKNMGEGKKRVSSGSSERGSKSPLKRAQEQSPRKRGRPPKDEKDLTIPESSTVKGMMAGPMAAFKWQPTASEPVKDADPHFHHFLLSQTEKPAVCYQAITKKLKICEEETGSTSIQAADSTAVNGSITPTDKKIGFLGLGLMGSGIVSNLLKMGHTVTVWNRTAEKCDLFIQEGARLGRTPAEVVSTCDITFACVSDPKAAKDLVLGPSGVLQGIRPGKCYVDMSTVDADTVTELAQVIVSRGGRFLEAPVSGNQQLSNDGMLVILAAGDRGLYEDCSSCFQAMGKTSFFLGEVGNAAKMMLIVNMVQGSFMATIAEGLTLAHVTGQSQQTLLDILNQGQLASIFLDQKCQNILQGNFKPDFYLKYIQKDLRLAIALGDAVNHPTPMAAAANEVYKRAKALDQSDNDMSAVYRAYIH
On to B4, for which the binding result in test [8] is “binds”.
